The list shows a part of the results. Single values are uncertain, as repeats are few or missing.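 The apoptosis fraction was the count of cleaved-PARP antibody-stained nuclei relative to all DNA-stained nuclei, imaged in 1,536-well plates. Screening doses were set so most cells survived, and baseline and induced cleaved-PARP levels vary greatly across cell lines.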
Assays:
Experiment in all cases: cleaved PARP positive nuclei fraction relative to DMSO control; melanoma cells; higher = more apoptosis
Details in all cases: library dose: low library concentration; 72 h
[1] = test system: MZ2-MEL
[2] = test system: MeWo
[3] = test system: RPMI7951
[4] = test system: RVH-421
[5] = test system: SkMel28
[6] = test system: SkMel2
[7] = test system: SkMel30
[8] = test system: SkMel5
[9] = test system: UACC257
[10] = test system: UACC62
[11] = test system: WM115
[12] = test system: WM1716
[13] = test system: WM1745
[14] = test system: WM3526
[15] = test system: WM3619
[16] = test system: WM451Lu

SMILES	cleaved PARP positive nuclei fraction [1]	cleaved PARP positive nuclei fraction [2]	cleaved PARP positive nuclei fraction [3]	cleaved PARP positive nuclei fraction [4]	cleaved PARP positive nuclei fraction [5]	cleaved PARP positive nuclei fraction [6]	cleaved PARP positive nuclei fraction [7]	cleaved PARP positive nuclei fraction [8]	cleaved PARP positive nuclei fraction [9]	cleaved PARP positive nuclei fraction [10]	cleaved PARP positive nuclei fraction [11]	cleaved PARP positive nuclei fraction [12]	cleaved PARP positive nuclei fraction [13]	cleaved PARP positive nuclei fraction [14]	cleaved PARP positive nuclei fraction [15]	cleaved PARP positive nuclei fraction [16]
O=C(Nc1cc(C(F)(F)F)cc(C(F)(F)F)c1)c1cc(Cl)ccc1O + COc1ccc(COc2ccc(Cc3cnc(N)nc3N)cc2OC)cc1 [GW2580] (first compound 0.016 µM, partner dose 1 µM)	37.6%	54.4%	148%	84.6%	276%	53.5%	37.4%	94.3%	99.4%	226%	74%	42.9%	72.2%	69.8%	105%	79.6%
O=C(Nc1cc(C(F)(F)F)cc(C(F)(F)F)c1)c1cc(Cl)ccc1O + CCc1ccc(CCOc2ccc(CC3SC(=O)NC3=O)cc2)nc1 [pioglitazone] (first compound 0.016 µM, partner dose 2 µM)	168%	45.7%	46.6%	126%	53.4%	173%	374%	74.1%	50.5%	49.2%	71.4%	30.1%	104%	69.1%	108%	160%
Cc1ccc(Nc2nccc(N(C)c3ccc4c(C)n(C)nc4c3)n2)cc1S(N)(=O)=O [Pazopanib] + NC(=O)Nc1cc(-c2cccc(F)c2)sc1C(=O)N[C@H]1CCCNC1 [AZD7762] (first compound 0.4 µM, partner dose 0.02 µM)	61.3%	49.8%	223%	205%	39.6%	105%	73.2%	65.2%	28.8%	81.6%	85%	107%	131%	67.4%	178%	46.7%
COc1cc([C@@H]2c3cc4c(cc3[C@@H](O[C@@H]3O[C@@H]5CO[C@@H](C)O[C@H]5[C@H](O)[C@H]3O)[C@H]3COC(=O)[C@H]23)OCO4)cc(OC)c1O [etoposide] + O=C(Nc1ccccc1)c1cc([N+](=O)[O-])ccc1Cl [GW9662] (first compound 0.02 µM, partner dose 2 µM)	120%	243%	54.3%	64.5%	186%	90.5%	28.9%	74.3%	68.4%	183%	112%	196%	–	92.1%	–	131%
O=c1[nH]nc(Sc2ncc([N+](=O)[O-])s2)n1-c1ccc2c(c1)OCCO2 + O=C(CCCCCCC(=O)Nc1ccccc1)NO [vorinostat] (first compound 0.2 µM, partner dose 0.08 µM)	142%	67.1%	140%	52%	55%	53.1%	63.1%	201%	45.9%	130%	62%	155%	83.6%	272%	89.5%	108%
N#CC[C@H](C1CCCC1)n1cc(-c2ncnc3[nH]ccc23)cn1 [ruxolitinib] + COc1cc2c(Oc3ccc4[nH]c(C)cc4c3F)ncnc2cc1OCCCN1CCCC1 [cediranib] (first compound 1 µM, partner dose 0.4 µM)	99.1%	200%	48.7%	149%	141%	155%	133%	141%	44.7%	88.4%	22.4%	50%	87.5%	40.5%	71.7%	112%
Cc1cc(Nc2cc(N3CCN(C)CC3)nc(Sc3ccc(NC(=O)C4CC4)cc3)n2)n[nH]1 [Tozasertib] + C=CCn1c(=O)c2cnc(Nc3ccc(N4CCN(C)CC4)cc3)nc2n1-c1cccc(C(C)(C)O)n1 [MK1775] (first compound 0.006 µM, partner dose 0.02 µM)	118%	113%	162%	150%	141%	82.3%	56.6%	83.2%	54.9%	73.1%	155%	67.7%	188%	50.6%	74.8%	146%
O=C(Nc1cc(C(F)(F)F)cc(C(F)(F)F)c1)c1cc(Cl)ccc1O + CC(C)(C)c1cnc(CSc2cnc(NC(=O)C3CCNCC3)s2)o1 [SNS-032] (first compound 0.016 µM, partner dose 0.01 µM)	140%	63.7%	158%	174%	61.3%	72.3%	40.4%	154%	251%	154%	45.4%	149%	101%	42.9%	97%	68%
COc1cc([C@@H]2c3cc4c(cc3[C@@H](O[C@@H]3O[C@@H]5CO[C@@H](C)O[C@H]5[C@H](O)[C@H]3O)[C@H]3COC(=O)[C@H]23)OCO4)cc(OC)c1O [etoposide] + O=C(Nc1cc(C(F)(F)F)cc(C(F)(F)F)c1)c1cc(Cl)ccc1O [IMD0354] (first compound 0.02 µM, partner dose 0.016 µM)	37.5%	104%	164%	126%	294%	98.4%	215%	–	–	154%	21.4%	38%	91.6%	248%	80.5%	88.5%
Cc1ccc(Nc2nccc(N(C)c3ccc4c(C)n(C)nc4c3)n2)cc1S(N)(=O)=O [Pazopanib] + Nc1ccn([C@@H]2O[C@H](CO)[C@@H](O)C2(F)F)c(=O)n1 [gemcitabine] (first compound 0.4 µM, partner dose 0.0004 µM)	178%	21.7%	57.5%	57.4%	43.5%	49%	73.3%	–	–	105%	69.6%	54.2%	115%	117%	104%	60.2%
Cc1cn(-c2cc(NC(=O)c3ccc(C)c(Nc4nccc(-c5cccnc5)n4)c3)cc(C(F)(F)F)c2)cn1 [nilotinib] + CN(c1ncccc1CNc1nc(Nc2ccc3c(c2)CC(=O)N3)ncc1C(F)(F)F)S(C)(=O)=O [PF562271] (first compound 0.2 µM, partner dose 0.08 µM)	204%	139%	89.3%	34.3%	164%	255%	171%	–	–	216%	111%	411%	146%	80.1%	71.5%	95.2%
O=c1[nH]nc(Sc2ncc([N+](=O)[O-])s2)n1-c1ccc2c(c1)OCCO2 + COc1ccc(C2=N[C@@H](c3ccc(Cl)cc3)[C@@H](c3ccc(Cl)cc3)N2C(=O)N2CCNC(=O)C2)c(OC(C)C)c1 [Nutlin-3] (first compound 0.2 µM, partner dose 0.1 µM)	43.8%	52.9%	35.7%	94.5%	80.4%	36.1%	150%	–	–	59.3%	117%	64.7%	114%	39.3%	80%	28.4%
N#CC[C@H](C1CCCC1)n1cc(-c2ncnc3[nH]ccc23)cn1 [ruxolitinib] + Nc1ncn([C@H]2C[C@H](O)[C@@H](CO)O2)c(=O)n1 [decitabine] (first compound 1 µM, partner dose 0.1 µM)	103%	93.9%	188%	101%	80.3%	124%	44.2%	–	–	45.7%	212%	42.7%	109%	41.1%	85.9%	63.7%
CCCCCCCCCCCCCCCCCCOP(=O)([O-])OC1CC[N+](C)(C)CC1 [Perifosine] + CNC(=O)c1cc(Oc2ccc(NC(=O)Nc3ccc(Cl)c(C(F)(F)F)c3)cc2)ccn1 [sorafenib] (first compound 0.4 µM, partner dose 0.4 µM)	56.7%	18.7%	107%	53.4%	83.1%	74%	19.7%	–	–	86.1%	196%	68.7%	103%	131%	95.8%	41.1%
CC[C@]1(O)C[C@H]2CN(CCc3c([nH]c4ccccc34)[C@@](C(=O)OC)(c3cc4c(cc3OC)N(C=O)[C@H]3[C@@](O)(C(=O)OC)[C@H](OC(C)=O)[C@]5(CC)C=CCN6CC[C@]43[C@@H]65)C2)C1 [vincristine] + Nc1nc(F)nc2c1ncn2[C@@H]1O[C@H](CO)[C@@H](O)[C@@H]1O [fludarabine] (first compound 0.0001 µM, partner dose 0.2 µM)	114%	6340%	291%	154%	125%	92.6%	2520%	–	–	561%	1500%	396%	105%	1160%	153%	171%
O=C(/C=C/c1cccnc1)NCCCCC1CCN(C(=O)c2ccccc2)CC1 + CCN(CC)CCNC(=O)c1c(C)[nH]c(/C=C2\C(=O)Nc3ccc(F)cc32)c1C [sunitinib] (first compound 0.01 µM, partner dose 0.4 µM)	855%	158%	137%	328%	36.2%	1330%	63%	–	–	232%	126%	30.4%	99%	71.1%	117%	256%
O=C(Nc1cc(C(F)(F)F)cc(C(F)(F)F)c1)c1cc(Cl)ccc1O + CC1(C)CCC(c2ccc(Cl)cc2)=C(CN2CCN(c3ccc(C(=O)NS(=O)(=O)c4ccc(N[C@H](CCN5CCOCC5)CSc5ccccc5)c(S(=O)(=O)C(F)(F)F)c4)cc3)CC2)C1 [ABT263] (first compound 0.016 µM, partner dose 0.4 µM)	124%	329%	158%	158%	83.5%	121%	163%	–	–	222%	243%	105%	246%	94.9%	128%	105%
O=C(Nc1cc(C(F)(F)F)cc(C(F)(F)F)c1)c1cc(Cl)ccc1O + NC1(c2ccc(-c3nc4ccn5c(=O)[nH]nc5c4cc3-c3ccccc3)cc2)CCC1 [MK2206] (first compound 0.016 µM, partner dose 0.4 µM)	694%	26.8%	78.2%	59.7%	206%	140%	104%	–	–	340%	136%	72%	103%	156%	86.1%	70%

A portion from further up, as a working copy:
SMILES	cleaved PARP positive nuclei fraction [1]	cleaved PARP positive nuclei fraction [2]	cleaved PARP positive nuclei fraction [3]	cleaved PARP positive nuclei fraction [4]	cleaved PARP positive nuclei fraction [5]	cleaved PARP positive nuclei fraction [6]	cleaved PARP positive nuclei fraction [7]	cleaved PARP positive nuclei fraction [8]	cleaved PARP positive nuclei fraction [9]	cleaved PARP positive nuclei fraction [10]	cleaved PARP positive nuclei fraction [11]	cleaved PARP positive nuclei fraction [12]	cleaved PARP positive nuclei fraction [13]	cleaved PARP positive nuclei fraction [14]	cleaved PARP positive nuclei fraction [15]	cleaved PARP positive nuclei fraction [16]
N#CC[C@H](C1CCCC1)n1cc(-c2ncnc3[nH]ccc23)cn1 [ruxolitinib] + COc1cc2c(Oc3ccc4[nH]c(C)cc4c3F)ncnc2cc1OCCCN1CCCC1 [cediranib] (first compound 1 µM, partner dose 0.4 µM)	99.1%	200%	48.7%	149%	141%	155%	133%	141%	44.7%	88.4%	22.4%	50%	87.5%	40.5%	71.7%	112%
Cc1cc(Nc2cc(N3CCN(C)CC3)nc(Sc3ccc(NC(=O)C4CC4)cc3)n2)n[nH]1 [Tozasertib] + C=CCn1c(=O)c2cnc(Nc3ccc(N4CCN(C)CC4)cc3)nc2n1-c1cccc(C(C)(C)O)n1 [MK1775] (first compound 0.006 µM, partner dose 0.02 µM)	118%	113%	162%	150%	141%	82.3%	56.6%	83.2%	54.9%	73.1%	155%	67.7%	188%	50.6%	74.8%	146%

From the supplement of paper PMC4604168 (melanoma cell lines)
